{
  "source": "patent US12535491B2",
  "about": "“Vaccine comprising protein-targeted (PT) extracellular DNA isolated from bacterial matrix” (priority 2018, dated 2026)",
  "molecules": {"B1": {"name": "IGHG2_HUMAN (protein, UniProt P01859 1-395, looked up)", "Immunoglobulin heavy constant …": "ASTKGPSVFPLAPCSRSTSESTAALGCLVKDYFPEPVTVSWNSGALTSGVHTFPAVLQSSGLYSLSSVVTVPSSNFGTQTYTCNVDHKPSNTKVDKTVERKCCVECPPCPAPPVAGPSVFLFPPKPKDTLMISRTPEVTCVVVDVSHEDPEVQFNWYVDGVEVHNAKTKPREEQFNSTFRVVSVLTVVHQDWLNGKEYKCKVSNKGLPAPIEKTISKTKGQPREPQVYTLPPSREEMTKNQVSLTCLVKGFYPSDISVEWESNGQPENNYKTTPPMLDSDGSFFLYSKLTVDKSRWQQGNVFSCSVMHEALHNHYTQKSLSLSPELQLEESCAEAQDGELDGLWTTITIFITLFLLSVCYSATITFFKVKWIFSSVVDLKQTIVPDYRNMIRQGA"}},
  "tested_on": "heat-resistant proteins of human plasma",
  "assay": "LC/MS of heat-resistant proteins in plasma after exposure to proteinase K and boiling",
  "data": [
    {"molecule": "B1", "values": [
      {"measurement": "N-plasma + pk", "setting": "LC/MS, control plasma with added proteinase K, heated at 100° C. for 5 minutes", "value": 31},
      {"measurement": "Effect (N-plasma + pk vs N-plasma)", "setting": "change on adding proteinase K to normal plasma", "value": "↑"}
    ]}
  ]
}
